Reference: patent US20230158136A1 (priority 2021, published 2023)
Not every detail of the peptide structures is certain; ends, links or a residue may be inferred. Where no end group is shown, it is not given here.

Legend:
[1] = system: mouse lungs; parameters: species or system mice; details: in vivo
[2] = system: 293T cells; assay type: cell-based

Substance: KKALLAHALHLLALLALHLAHALKKA-NH2 [LAH4]
- transfection efficiency in mouse lungs [1]: significantly lower transfection efficiency than TAT2-P1
- transfection efficiency in cells [2]: significantly higher transfection efficiency than TAT2-P1
